Assay [1] concerns the target Recombinant IGF-I (human) (human) (UniProt P05019). In words: BIAcore, IGF-I surface; ks (slope of dRU/dt against RU over 21-120 s) plotted against nM IGFBP-1 (as intact), after 2 h with partially purified azurocidin.
For assay [2] the target is unchanged. Kind of assay: BIAcore, IGF-I immobilised by amine coupling, pIGFBP-1 injected at 10 µl/min after 2 h with partially purified azurocidin, mean sensorgram. In general terms: In SPR one partner is held on a chip, and binding of the other changes the refractive index at the surface.
Assay [3] shares this target. In words: BIAcore, IGF-I immobilised by amine coupling, pIGFBP-1 injected at 10 µl/min after 4 h with partially purified azurocidin, mean sensorgram.

Chains of the proteins cited; added tags and fusions are not shown. Residues count along the entry.
UniProt P05019, residues 49-118: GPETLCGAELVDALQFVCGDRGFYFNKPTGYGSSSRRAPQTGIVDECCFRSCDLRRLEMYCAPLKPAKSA

No constants are given. Whether binding was seen depends on the method and setting. Some entries that bind do so weakly or less than the wild type.

B1: Recombinant phosphorylated IGFBP-1 after 2-h proteolysis by partially purified azurocidin (protein, human)
chain 1: APWQCAPCSAEKLALCPPVSASCSEVTRSAGCGCCPMCALPLGAACGVATARCARGLSCRALPGEQQPLHALTRGQGACVQESDASAPHAAEAGSPESPESTEITEEELLDNFHLMAPSEEDHSILWDAI
chain 2: STYDGSKALHVTNIKKWKEPCRIELYRVVESLAKAQETSGEEISKFYLPNCNKNGFYHSRQCETSMDGEAGLCWCVYPWNGKRIPGSPEIRGDPNCQIYFNVQN
modifications: from the phosphorylated protein; sites not determined
Take B1: the binding result in assay [1] and in assay [2] was “binds” in each case.

B2: Recombinant phosphorylated IGFBP-1 after 4-h proteolysis by partially purified azurocidin (protein, human)
chain 1: B1 chain 1
chain 2: B1 chain 2
modifications: from the phosphorylated protein; sites not determined
Consider B2, for which, in assay [3], the binding entry is “binds”.
